{"source": "the supplement of paper PMC5355238", "note": "Structures can show the parent of a compound that is named as a salt. The list shows a part of the results. Many values rest on one well or one pass, so single values are uncertain.", "data": [{"tested_on": "Reh", "assay": "S-phase gammaH2AX median, Z-score vs plate median (drug alone); higher = more S-phase DNA damage", "conditions": "MK1775 concentration 0 nM; 10 µM; 4 h", "values": [{"compound": "O=c1c(-c2ccc(O)cc2)coc2cc(O)ccc12", "note": "[Daidzein]", "S-phase gammaH2AX median (Z-score)": 0.12}, {"compound": "CC(C)NC[C@H](O)COc1cccc2ccccc12", "note": "[(S)-Propranolol hydrochloride]", "S-phase gammaH2AX median (Z-score)": 0.367}, {"compound": "Clc1ccc(C(c2ccc(Cl)cc2)[n+]2ccn(CC(OCc3ccc(Cl)cc3Cl)c3ccc(Cl)cc3Cl)c2)cc1", "note": "(stereo not drawn) [Calmidazolium chloride]", "S-phase gammaH2AX median (Z-score)": -0.115}, {"compound": "C[C@H]1O[C@@H](n2cc(F)c(=O)[nH]c2=O)[C@H](O)[C@@H]1O", "note": "[5-fluoro-5'-deoxyuridine]", "S-phase gammaH2AX median (Z-score)": -0.126}, {"compound": "O=C(O)C=C1CCCc2ccccc2C1O", "note": "(stereo not drawn)", "S-phase gammaH2AX median (Z-score)": 0.0875}, {"compound": "CC(=O)CCCCn1c(=O)c2c(ncn2C)n(C)c1=O", "note": "[Pentoxifylline]", "S-phase gammaH2AX median (Z-score)": 0.0639}, {"compound": "CN(C)CCOc1ccc(-c2nc(-c3ccncc3)c(-c3ccc4c(c3)CC/C4=N\\O)[nH]2)cc1", "S-phase gammaH2AX median (Z-score)": 0.248}, {"compound": "Cc1ccnc(NS(=O)(=O)c2ccc(NC(=O)Nc3ccc(S(=O)(=O)Nc4nccc(C)n4)cc3)cc2)n1", "S-phase gammaH2AX median (Z-score)": 0.00657}, {"compound": "COc1c(C)c2c(c(O)c1C/C=C(\\C)CCC(=O)O)C(=O)OC2", "note": "[Mycophenolic (Mycophenolate)]", "S-phase gammaH2AX median (Z-score)": -0.0159}, {"compound": "NC[C@@H](O)c1ccc(O)c(O)c1", "note": "[L(-)-Norepinephrine bitartrate]", "S-phase gammaH2AX median (Z-score)": 0.0214}, {"compound": "Nc1nc(Cl)nc2c1ncn2[C@@H]1O[C@H](COP(=O)(O)OP(=O)(O)OP(=O)(O)O)[C@H](O)C1O", "note": "(stereo partly drawn) [2-Chloroadenosine triphosphate tetrasodium]", "S-phase gammaH2AX median (Z-score)": 0.0233}, {"compound": "Oc1cc2c(cc1O)CN(C(=S)NCCc1ccc(Cl)cc1)CCC2", "note": "[Capsazepine]", "S-phase gammaH2AX median (Z-score)": -0.00971}, {"compound": "COc1ccc(CCN2CCN(CCCc3ccccc3)CC2)cc1OC", "S-phase gammaH2AX median (Z-score)": 0.115}, {"compound": "O=C1Cc2c([nH]c3ccc(Br)cc23)-c2ccccc2N1", "note": "[Kenpaullone]", "S-phase gammaH2AX median (Z-score)": -0.441}, {"compound": "CNCCCC12CCC(c3ccccc31)c1ccccc12", "note": "[Maprotiline hydrochloride]", "S-phase gammaH2AX median (Z-score)": -0.218}, {"compound": "COc1ccc2c(c1)c(CC(=O)N1CCOCC1)c(C)n2C(=O)c1ccc(Cl)cc1", "note": "[Indomethacin morpholinylamide]", "S-phase gammaH2AX median (Z-score)": 0.0661}, {"compound": "C[C@]12C=CC(=O)C=C1CC[C@H]1[C@@H]3C[C@@H](O)[C@](O)(C(=O)CO)[C@@]3(C)C[C@H](O)[C@@]12F", "note": "[Triamcinolone]", "S-phase gammaH2AX median (Z-score)": -0.0467}, {"compound": "N#Cc1ccc(COC[C@H]2O[C@@H](n3c(NCc4ccc(Cl)c(Cl)c4)nc4c(N)ncnc43)[C@H](O)[C@@H]2O)cc1", "S-phase gammaH2AX median (Z-score)": -0.0321}, {"compound": "CCCCCCCC/C=C\\CCCCCCCC(=O)NCCO", "note": "[N-Oleoylethanolamine]", "S-phase gammaH2AX median (Z-score)": 0.156}, {"compound": "CNCC[C@@H](Oc1ccc(C(F)(F)F)cc1)c1ccccc1", "note": "[R-(-)-Fluoxetine hydrochloride]", "S-phase gammaH2AX median (Z-score)": -0.148}, {"compound": "Cn1ccnc1", "note": "[1-Methylimidazole]", "S-phase gammaH2AX median (Z-score)": 0.0591}, {"compound": "CCN(CC)CCOC(=O)c1ccc(N)cc1", "note": "[Procaine hydrochloride]", "S-phase gammaH2AX median (Z-score)": -0.0378}, {"compound": "N#C/C(=C\\c1ccc(O)c(O)c1)C(=O)NCCc1ccccc1", "note": "[Tyrphostin AG 698]", "S-phase gammaH2AX median (Z-score)": -0.227}, {"compound": "O=C(O)Cc1cccc(OCCCN(Cc2cccc(C(F)(F)F)c2Cl)CC(c2ccccc2)c2ccccc2)c1", "S-phase gammaH2AX median (Z-score)": 0.0893}, {"compound": "O=c1cc(-c2ccccc2)[nH]c2nc(Cl)ccc12", "note": "[7-Chloro-4-hydroxy-2-phenyl-1,8-naphthyridine]", "S-phase gammaH2AX median (Z-score)": 0.0641}, {"compound": "O=c1[nH]c(=O)c2nc3ccccc3nc2[nH]1", "note": "[Alloxazine]", "S-phase gammaH2AX median (Z-score)": -0.0641}, {"compound": "CC(=O)O[C@H]1C[C@@]2(C)[C@@H](C[C@@H](O)[C@H]3[C@@]4(C)CC[C@@H](O)[C@@H](C)[C@@H]4CC[C@@]32C)/C1=C(\\CCC=C(C)C)C(=O)O", "note": "[Fusidic acid sodium]", "S-phase gammaH2AX median (Z-score)": -0.0724}, {"compound": "CC(=O)N[C@@H](CS)C(=O)O", "note": "[N-Acetyl-L-Cysteine]", "S-phase gammaH2AX median (Z-score)": 0.0641}, {"compound": "C[C@]1(c2nc3c(C(N)=O)cccc3[nH]2)CCCN1", "note": "[ABT-888 (Veliparib)]", "S-phase gammaH2AX median (Z-score)": 0.204}, {"compound": "O=c1[nH]c2cc(C(F)(F)F)ccc2n1-c1cc(C(F)(F)F)ccc1O", "S-phase gammaH2AX median (Z-score)": 0.222}, {"compound": "N[C@@H](CCCC(=O)O)C(=O)O", "note": "[L-2-aminoadipic acid]", "S-phase gammaH2AX median (Z-score)": 0.0214}, {"compound": "CCCCCCCCCC[Si](C)(C)CCC(=O)NC(Cc1ccc(C)cc1)c1ccccc1", "note": "(stereo not drawn) [Sandoz 58-035]", "S-phase gammaH2AX median (Z-score)": -0.0233}, {"compound": "COC(=O)Nc1ccc(-c2nc(N3CCOCC3)c3cnn(C4CCN(C(=O)OC)CC4)c3n2)cc1", "S-phase gammaH2AX median (Z-score)": -0.0808}, {"compound": "NC(=O)OCC(COC(N)=O)c1ccccc1", "note": "[Felbamate]", "S-phase gammaH2AX median (Z-score)": -0.0724}, {"compound": "CCCCS(=N)(=O)CCC(N)C(=O)O", "note": "(racemic) [DL-Buthionine-[S,R]-sulfoximine]", "S-phase gammaH2AX median (Z-score)": -0.033}, {"compound": "COc1ccccc1NC(=O)Nc1nc(-c2cccnc2)nc2ccccc12", "S-phase gammaH2AX median (Z-score)": 0.133}, {"compound": "COCc1nc2c([nH]1)c(=O)n(C)c(=O)n2CC(C)C", "note": "[8-Methoxymethyl-3-isobutyl-1-methylxanthine]", "S-phase gammaH2AX median (Z-score)": 0.0639}, {"compound": "CC(C)n1c(/C=C/C(O)CC(O)CC(=O)O)c(-c2ccc(F)cc2)c2ccccc21", "note": "(stereo not drawn) [Fluvastatin sodium (Lescol)]", "S-phase gammaH2AX median (Z-score)": 0.153}]}]}
